# Structures can show the parent of a compound that is named as a salt. The list shows a part of the results. Single values are uncertain here, since repeats match poorly.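 Human kidney-derived cells stably carry a construct in which eight TEAD-binding elements drive luciferase, measured by luminescence in a drug-repurposing library screen. A hit is any compound whose signal exceeds the plate mean by more than five robust Z scores.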
# Tested on: HEK293A TEAD-LUC reporter
# Assay: TEAD-luciferase reporter activity (YAP activation), robust Z score vs plate; higher = stronger YAP/TEAD activation
# Details: 24 h
SMILES,TEAD-luciferase reporter activity (compound concentration: 200 nM),TEAD-luciferase reporter activity (compound concentration: 2 uM),TEAD-luciferase reporter activity (compound concentration: 10 uM)
"Oc1ccc(C=Cc2cc(O)cc(O)c2)cc1 [resveratrol, Royalmount]",inactive: -0.968,inactive: -1.02,inactive: -1.03
CO/N=C(\C(=O)N[C@@H]1C(=O)N2C(C(=O)O)=C(CSC(=O)c3ccco3)CS[C@H]12)c1csc(N)n1 [Ceftiofur],inactive: -0.565,inactive: -0.168,inactive: 1.03
c1ccc(CCCC(Oc2ccccc2OCc2ccccc2)C2=NCCN2)cc1 (configuration not stated),inactive: -1.41,inactive: -1.11,inactive: 0.298
N=C(N)NCCC[C@H](NC(=O)[C@@H]1CCCN1C(=O)[C@@H]1CSSC[C@H](N)C(=O)N[C@@H](Cc2ccc(O)cc2)C(=O)N[C@@H](Cc2ccccc2)C(=O)N[C@@H](CCC(N)=O)C(=O)N[C@@H](CC(N)=O)C(=O)N1)C(=O)O,inactive: -0.56,inactive: 0.283,inactive: -0.549
CNC(=O)c1cccc(-c2ccc3c(N4CCOC[C@@H]4C)nc(N4CCOC[C@@H]4C)nc3n2)c1 [Vistusertib],inactive: -0.584,inactive: -1.37,inactive: -0.48
CC[C@H](C(=O)N1CCCC[C@H]1C(=O)O[C@H](CCc1ccc(OC)c(OC)c1)c1cccc(OCC(=O)NCCNC(=O)COc2cccc([C@@H](CCc3ccc(OC)c(OC)c3)OC(=O)[C@@H]3CCCCN3C(=O)[C@@H](CC)c3cc(OC)c(OC)c(OC)c3)c2)c1)c1cc(OC)c(OC)c(OC)c1 [Rimiducid],inactive: -2.03,inactive: -1.56,inactive: 0.754
Cc1cc2c(OCC(O)CNC(C)C)cccc2[nH]1 (configuration not stated) [mepindolol],inactive: 1.18,inactive: 1.03,inactive: -0.199
CS(=O)(=O)Nc1ccc(CNc2nc(C(F)(F)F)ccc2-c2cc(Oc3cccc4sc(N)nc34)ncn2)cc1F,inactive: 0.494,inactive: -0.0349,inactive: 0.0769
C[C@@H](Oc1nnc(-c2ccncc2)n1C)c1cc(-c2cccc(Cl)c2)on1,inactive: 0.893,inactive: -1.52,inactive: 0.0384
Cn1cc(-c2cc3c(N4CCN(c5ncc([C@@](C)(N)c6ccc(F)cc6)cn5)CC4)ncnn3c2)cn1 [Avapritinib],inactive: -0.308,inactive: -2.04,inactive: 0.411
COc1ccc2cc(CCC(C)=O)ccc2c1,inactive: 0.0736,,inactive: 0.302
COc1ccc2cc(CCC(C)=O)ccc2c1 [nabumetone],,inactive: 3.23,
CO[C@@H](Cc1ccc(OCCc2nc(-c3ccccc3)oc2C)c2ccsc12)C(=O)O [Aleglitazar],inactive: -0.234,inactive: -0.403,inactive: -0.485
N#Cc1cc2c(OCC(O)CN3CCN(C(c4ccccc4)c4ccccc4)CC3)cccc2[nH]1 (configuration not stated),inactive: -0.769,inactive: -0.272,active: 6.08
Clc1ccccc1C(c1ccccc1)(c1ccccc1)n1ccnc1,inactive: -0.608,,inactive: 1.33
Clc1ccccc1C(c1ccccc1)(c1ccccc1)n1ccnc1 [clotrimazole],,inactive: -0.384,
CCc1cc(NCc2nc3c(C)ccc(C)c3o2)c(=O)[nH]c1C,inactive: -0.668,inactive: -1.4,inactive: 0.325
CCOC(=O)C1(CCCCCCOc2ccc(Cl)cc2)CO1 (configuration not stated) [etomoxir depression therapy],,inactive: -0.469,
CCOC(=O)C1(CCCCCCOc2ccc(Cl)cc2)CO1 (configuration not stated),inactive: -1.44,,inactive: -0.486
CN(C)CC(=O)O,inactive: -0.371,inactive: -1.15,inactive: 0.833
N=C(Nc1ccccc1)c1cccs1,inactive: 0.748,inactive: -1.32,inactive: 0.419
CCOc1cccc2c1[O][Mn]([O]C(C)=O)[O]c1c(cccc1OCC)/C=N/CC/N=C/2,inactive: -0.382,inactive: 0.0844,inactive: 1.27
Clc1ccc(N2N=NCC2c2ccncc2)cc1 (configuration not stated),inactive: -0.956,inactive: -0.669,inactive: 0.869
Nc1ccn([C@@H]2O[C@H](CO)[C@@H](O)[C@H]2O)c(=O)c1,inactive: -0.281,inactive: -2.69,inactive: -1.01
CN1CCN(Cc2ccc(Nc3ncc(Cl)c(Nc4ccccc4S(=O)(=O)N(C)C)n3)cc2)CC1,inactive: 0.44,inactive: -2.22,inactive: -1.44
Cc1cccc(C(=O)Nc2nnn[nH]2)n1,inactive: 1.3,inactive: 1.21,inactive: 0.986

SMILES,TEAD-luciferase reporter activity (compound concentration: 200 nM),TEAD-luciferase reporter activity (compound concentration: 2 uM),TEAD-luciferase reporter activity (compound concentration: 10 uM)
CC1=C(/C=C/C(C)=C/C=C/C(C)=C/CO)C(C)(C)CCC1,inactive: 0.87,inactive: -1.03,inactive: 0.47
Cn1ncnc1[C@H]1c2n[nH]c(=O)c3cc(F)cc(c23)N[C@@H]1c1ccc(F)cc1 [talazoparib],,inactive: -1.04,
[O-][n+]1cc[n+]([O-])c2ccccc21,inactive: 2.18,inactive: 0.534,inactive: -0.313
C/N=C(/NC)NCc1ccccc1 [bethanidine],inactive: 0.426,inactive: 1.71,inactive: 0.726
CCCCCCCCCCCCCCCCOC[C@H](COP(=O)([O-])OCC[N+](C)(C)C)OCCCCC(=O)O,inactive: 1.86,inactive: -0.887,inactive: -0.528
CC(CN(C)C)CN1c2ccccc2OCOc2ccc(Cl)cc21 (configuration not stated) [Traboxopine hydrochloride],inactive: 0.42,active: 5.08,inactive: 0.629
Cc1nc(N)ccc1CNC(=O)Cn1c(C)cnc(NCCc2ccccc2)c1=O,inactive: -0.825,inactive: -1.31,inactive: -0.622
CCc1ccc(CN2CCCCC23Cc2ccccc2CNC3=O)cc1 (configuration not stated),inactive: -3.62,,inactive: 2.48
C[N+](C)(C)[C@H](Cc1c[nH]c(S)n1)C(=O)O [L-(+)-Ergothioneine],inactive: -0.695,,inactive: -0.285
O=C(Nc1ccc(Cl)c(Cl)c1)C1=C(O)c2cc(Cl)ccc2S(=O)(=O)CC1 [enolicam],inactive: -1.11,inactive: -0.329,inactive: 1.35
C[C@@H](c1ccc(-c2ccn(C)c(=O)c2)cc1)N1CC[C@](CC(C)(C)O)(c2ccccc2)OC1=O,inactive: -1.21,inactive: -1.35,inactive: 0.195
C#CCOC(=O)C1CN=CNC1 (configuration not stated),inactive: -1.64,active: 5.34,inactive: 0.0614
CCC(=O)OCC(=O)[C@@]1(OC(=O)CC)[C@H](C)C[C@H]2[C@H]3[C@H]([C@@H](O)C[C@@]21C)[C@@]1(C)C=CC(=O)C=C1C[C@H]3Cl,inactive: -1.02,inactive: 0.266,inactive: 0.723
C=C1CCC[C@]2(C)C=C3OC(=O)C(C)=C3C[C@@H]12 [Atractylenolide I],inactive: -0.413,inactive: -1.04,inactive: 0.449
COc1ccc(-n2nc(C(F)F)cc2-c2ccc(S(C)=O)cc2)cc1 (configuration not stated),inactive: 0.0581,inactive: 0.125,inactive: 0.0879
COC(=O)C[C@@H](O)C[C@@H](O)/C=C/C=C(c1ccccc1)c1ccccc1,inactive: -0.753,inactive: -1.67,inactive: -2.08
CC(=O)SC[C@@H](Cc1ccc2c(c1)OCO2)C(=O)N[C@@H](C)C(=O)OCc1ccccc1 [Fasidotril],inactive: -0.468,inactive: -0.803,inactive: -0.217
O=C(O)[C@@H](c1ccc(OCc2ccc3ccccc3n2)cc1)C1CCCC1,inactive: -0.23,inactive: -1.41,inactive: -0.234
Cc1cccc(C)c1NC(=O)C1CCCCN1CCO (configuration not stated) [droxicainide],active: 7.9,inactive: -0.26,inactive: -0.964
C[C@H](NC(=O)C(C)(C)Oc1ccc(C(F)(F)F)cn1)[C@@H](Cc1ccc(Cl)cc1)c1cccc(C#N)c1 [Taranabant],inactive: 3.98,inactive: -0.559,inactive: -1.14
C[C@]1(C(=O)N2CCOCC2)CO[C@H](c2nc(-c3ccncc3)c(-c3ccc(F)cc3)[nH]2)OC1,inactive: 0.649,inactive: -1.05,inactive: -1.35
O=CN1CCC(C(=O)NCCN2CCC(=C3c4ccccc4C=Cc4ccccc43)CC2)CC1,inactive: 0.73,inactive: -1.78,inactive: -0.809
O=C(N[C@@H]1CC[C@@H](c2cccc(F)c2F)CN(CC(F)(F)F)C1=O)N1CCC(n2c(=O)[nH]c3ncccc32)CC1 [telcagepant],,inactive: 0.387,
O=C(N[C@@H]1CC[C@@H](c2cccc(F)c2F)CN(CC(F)(F)F)C1=O)N1CCC(n2c(=O)[nH]c3ncccc32)CC1,inactive: -2.35,,inactive: -0.42
CCCCCOc1ccc(-c2cc(-c3ccc(C(=O)N[C@H]4C[C@@H](O)[C@@H](O)NC(=O)[C@@H]5[C@@H](O)[C@@H](C)CN5C(=O)[C@H]([C@H](O)CC(N)=O)NC(=O)[C@H]([C@H](O)[C@@H](O)c5ccc(O)c(OS(=O)(=O)O)c5)NC(=O)[C@@H]5C[C@@H](O)CN5C(=O)C([C@@H](C)O)NC4=O)cc3)no2)cc1 (some centres not stated) [Micafungin],inactive: -0.726,,inactive: 3.01
CCCCCOc1ccc(-c2cc(-c3ccc(C(=O)N[C@H]4C[C@@H](O)[C@@H](O)NC(=O)[C@@H]5[C@@H](O)[C@@H](C)CN5C(=O)[C@H]([C@H](O)CC(N)=O)NC(=O)[C@H]([C@H](O)[C@@H](O)c5ccc(O)c(OS(=O)(=O)O)c5)NC(=O)[C@@H]5C[C@@H](O)CN5C(=O)C([C@@H](C)O)NC4=O)cc3)no2)cc1 (some centres not stated) [Micafungin Sodium],,inactive: -0.732,

# Single records, from the list above:
# CCCCCCCCCCCCCCCCOC[C@H](COP(=O)([O-])OCC[N+](C)(C)C)OCCCCC(=O)O reads TEAD-luciferase reporter activity (compound concentration: 200 nM): inactive: 1.86; TEAD-luciferase reporter activity (compound concentration: 2 uM): inactive: -0.887; TEAD-luciferase reporter activity (compound concentration: 10 uM): inactive: -0.528
# C[C@H](NC(=O)C(C)(C)Oc1ccc(C(F)(F)F)cn1)[C@@H](Cc1ccc(Cl)cc1)c1cccc(C#N)c1 [Taranabant] reads TEAD-luciferase reporter activity (compound concentration: 200 nM): inactive: 3.98; TEAD-luciferase reporter activity (compound concentration: 2 uM): inactive: -0.559; TEAD-luciferase reporter activity (compound concentration: 10 uM): inactive: -1.14
